In this assay the test system is P. Ovale. Description: Microbiological activity against P. Ovale, agar serial dilution (Table 1). Particulars: 96 h, read-out: Minimum Inhibitory Concentration (MIC) against P. Ovale. It is filed as cell-based, P. Ovale (ATCC 14521). The protocol: The microbiological activities of the zinc and sodium complexes of 2-mercapto-quinoline-N-oxide (MQNO) against P. Ovale were compared with the sodium and zinc salts of pyridinethione-N-oxide (PTO) and other conventional soapbacteriostats. P. Ovale is a microorganism associated with dandruff conditions.
Equal amounts of the respective compounds were dissolved in methyl cellosolve, dimethylformamide, or water, serially diluted in ten fold sequence and incorporated into plates of molten Agar. The plates were allowed to solidify, were then inoculated with P. Ovale (ATCC 14521), incubated at 27°C. for 4 days and inspected for growth.

The values that follow come from patent US3961054A, “Combatting dandruff with mercapto quinoline N-oxides” (Ciba-Geigy Corporation, priority 1974, dated 1976).

Structures are written as SMILES.

As for `CC(C)(C)CC(C)(C)c1ccc(OCCOCC[N+](C)(C)Cc2ccccc2)cc1` [Benzethonium chloride], the MIC is above 1000 µg/mL.
